From article PMC5431654 come the findings set out here.

Chains of the proteins cited; added tags and fusions are not shown. Lines headed by an entry give the natural chain unless they say otherwise; changes in a name come on top. A line that says so, or that is headed by a name, gives the form on record, which may keep a tag or linker. Residues count along the entry.
UniProt P67775: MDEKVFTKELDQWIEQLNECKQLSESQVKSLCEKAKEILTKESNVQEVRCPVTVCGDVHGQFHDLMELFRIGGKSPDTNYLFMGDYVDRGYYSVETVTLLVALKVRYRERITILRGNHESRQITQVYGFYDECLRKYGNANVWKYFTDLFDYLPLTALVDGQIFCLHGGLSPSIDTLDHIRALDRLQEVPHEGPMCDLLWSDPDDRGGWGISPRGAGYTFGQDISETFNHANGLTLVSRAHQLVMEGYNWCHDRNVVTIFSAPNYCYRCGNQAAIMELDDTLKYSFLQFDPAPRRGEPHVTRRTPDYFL
UniProt P52732: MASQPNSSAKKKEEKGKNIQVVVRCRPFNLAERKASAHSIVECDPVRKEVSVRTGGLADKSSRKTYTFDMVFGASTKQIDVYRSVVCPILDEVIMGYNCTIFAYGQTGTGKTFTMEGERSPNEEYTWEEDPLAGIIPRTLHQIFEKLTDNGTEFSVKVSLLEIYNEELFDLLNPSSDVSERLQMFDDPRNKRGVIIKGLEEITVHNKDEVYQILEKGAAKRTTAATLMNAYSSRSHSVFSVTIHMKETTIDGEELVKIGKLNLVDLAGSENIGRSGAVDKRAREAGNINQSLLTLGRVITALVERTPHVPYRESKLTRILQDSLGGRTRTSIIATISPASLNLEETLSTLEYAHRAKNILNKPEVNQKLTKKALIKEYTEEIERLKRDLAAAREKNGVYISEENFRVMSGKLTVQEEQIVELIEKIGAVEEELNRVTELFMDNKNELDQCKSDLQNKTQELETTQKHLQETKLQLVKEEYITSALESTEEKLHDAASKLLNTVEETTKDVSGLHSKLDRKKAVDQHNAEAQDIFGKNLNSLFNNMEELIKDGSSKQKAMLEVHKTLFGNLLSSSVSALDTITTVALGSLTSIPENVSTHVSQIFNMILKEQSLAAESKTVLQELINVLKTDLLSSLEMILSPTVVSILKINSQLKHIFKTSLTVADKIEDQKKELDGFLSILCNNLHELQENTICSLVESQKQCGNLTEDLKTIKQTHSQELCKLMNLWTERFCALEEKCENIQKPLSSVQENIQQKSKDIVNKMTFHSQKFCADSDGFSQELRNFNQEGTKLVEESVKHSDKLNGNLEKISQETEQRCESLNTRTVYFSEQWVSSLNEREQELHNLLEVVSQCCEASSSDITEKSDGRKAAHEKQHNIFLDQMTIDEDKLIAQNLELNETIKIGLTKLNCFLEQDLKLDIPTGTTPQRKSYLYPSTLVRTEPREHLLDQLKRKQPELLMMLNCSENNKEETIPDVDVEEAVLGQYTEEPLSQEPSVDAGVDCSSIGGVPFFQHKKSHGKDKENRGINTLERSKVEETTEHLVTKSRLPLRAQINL
FLAG-tagged EG5 fragment Tail-2 (751~1057aa): residues 751-1056 of P52732
UniProt P63151: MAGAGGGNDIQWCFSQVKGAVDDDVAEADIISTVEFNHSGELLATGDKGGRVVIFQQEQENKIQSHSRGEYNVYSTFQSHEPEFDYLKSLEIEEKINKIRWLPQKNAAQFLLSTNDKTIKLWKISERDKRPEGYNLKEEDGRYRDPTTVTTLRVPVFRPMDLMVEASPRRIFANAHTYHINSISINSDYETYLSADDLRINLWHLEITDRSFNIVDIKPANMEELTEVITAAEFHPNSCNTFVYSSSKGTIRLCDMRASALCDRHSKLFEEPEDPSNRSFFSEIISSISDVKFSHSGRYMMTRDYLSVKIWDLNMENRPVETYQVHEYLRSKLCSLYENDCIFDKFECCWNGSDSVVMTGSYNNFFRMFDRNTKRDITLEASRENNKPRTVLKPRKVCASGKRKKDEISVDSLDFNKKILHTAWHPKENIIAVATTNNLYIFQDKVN

In experiment [1] the target is FLAG-tagged PP2A/Cα (human) (UniProt P67775). Description: affinity purification with mass spectrometry; HeLa cells overexpressing FLAG-PP2A/Cα, blocked at metaphase with Nocodazole; lysate on anti-FLAG beads, FLAG peptide elution, SDS-PAGE, silver staining, band sequenced by mass spectrometry (Mascot).
Experiment [2] concerns the target FLAG-tagged EG5 fragment Tail-2 (751~1057aa) (human) (UniProt P52732). Description: affinity purification with mass spectrometry; Flag pull-down from HEK293 cells expressing Flag-tagged Tail2; band around 55 kD identified by mass spectroscopy.

No constants are given. Whether binding was seen depends on the method and setting. Binding seen in cells or lysates may run through a third protein. A yes stands for co-enrichment or nearness to the bait. Other partners may have been found.

On to “endogenous EG5 (KIF11) (from UniProt P52732 1-1056)”, for which the binding result in experiment [1] is “binds”.

As for “endogenous PP2A/B55α (from UniProt P63151 1-447)”, the binding entry in experiment [2] is recorded as “binds”.
